Measurements: patent publication US20220348647A1
Results are given in words; binding and its absence hold for the method and conditions named. Some results given as binding are weak or reduced against the parent protein; the word gives no strength.

T1: cyno CCL17 (Macaca fascicularis (cyno))
T1 sequence: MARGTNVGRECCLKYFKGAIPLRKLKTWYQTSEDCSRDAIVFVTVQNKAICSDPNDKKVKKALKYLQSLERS


Molecular target: T1, cyno CCL17 (Macaca fascicularis (cyno))
Test: ranking ELISA of Fab variants with bt-cyno CCL17

binding	Binder
binds	C17F319 variant W→T at HCDR3 position 100a (Kabat) (Fab, V domains shown) VH: EVQLVQSGAEVKKPGESLKISCKGSGYSFTSYWIGWVRQMPGKGLEWMGIIDPSDSDTRYSPSFQGQVTISADKSISTAYLQWSSLKASDTAMYYCARVGPADVTDSFDYWGQGTLVTVSS VL: DIVMTQSPDSLAVSLGERATINCKSSQSVLLSPWNSNQLAWYQQKPGQPPKLLIYGASTRESGVPDRFSGSGSGTDFTLTISSLQAEDVAVYYCQQYYLIPSTFGQGTKVEIK
binds	C17F319 variant W→R at HCDR3 position 100a (Kabat) (Fab, V domains shown) VH: EVQLVQSGAEVKKPGESLKISCKGSGYSFTSYWIGWVRQMPGKGLEWMGIIDPSDSDTRYSPSFQGQVTISADKSISTAYLQWSSLKASDTAMYYCARVGPADVRDSFDYWGQGTLVTVSS VL: DIVMTQSPDSLAVSLGERATINCKSSQSVLLSPWNSNQLAWYQQKPGQPPKLLIYGASTRESGVPDRFSGSGSGTDFTLTISSLQAEDVAVYYCQQYYLIPSTFGQGTKVEIK
